Results on two molecules are retold here after paper doi:10.1101/2022.12.23.521694.

Chains of the proteins cited; added tags and fusions are not shown. Lines headed by an entry give the natural chain unless they say otherwise; changes in a name come on top.
UniProt Q70E73, whole entry: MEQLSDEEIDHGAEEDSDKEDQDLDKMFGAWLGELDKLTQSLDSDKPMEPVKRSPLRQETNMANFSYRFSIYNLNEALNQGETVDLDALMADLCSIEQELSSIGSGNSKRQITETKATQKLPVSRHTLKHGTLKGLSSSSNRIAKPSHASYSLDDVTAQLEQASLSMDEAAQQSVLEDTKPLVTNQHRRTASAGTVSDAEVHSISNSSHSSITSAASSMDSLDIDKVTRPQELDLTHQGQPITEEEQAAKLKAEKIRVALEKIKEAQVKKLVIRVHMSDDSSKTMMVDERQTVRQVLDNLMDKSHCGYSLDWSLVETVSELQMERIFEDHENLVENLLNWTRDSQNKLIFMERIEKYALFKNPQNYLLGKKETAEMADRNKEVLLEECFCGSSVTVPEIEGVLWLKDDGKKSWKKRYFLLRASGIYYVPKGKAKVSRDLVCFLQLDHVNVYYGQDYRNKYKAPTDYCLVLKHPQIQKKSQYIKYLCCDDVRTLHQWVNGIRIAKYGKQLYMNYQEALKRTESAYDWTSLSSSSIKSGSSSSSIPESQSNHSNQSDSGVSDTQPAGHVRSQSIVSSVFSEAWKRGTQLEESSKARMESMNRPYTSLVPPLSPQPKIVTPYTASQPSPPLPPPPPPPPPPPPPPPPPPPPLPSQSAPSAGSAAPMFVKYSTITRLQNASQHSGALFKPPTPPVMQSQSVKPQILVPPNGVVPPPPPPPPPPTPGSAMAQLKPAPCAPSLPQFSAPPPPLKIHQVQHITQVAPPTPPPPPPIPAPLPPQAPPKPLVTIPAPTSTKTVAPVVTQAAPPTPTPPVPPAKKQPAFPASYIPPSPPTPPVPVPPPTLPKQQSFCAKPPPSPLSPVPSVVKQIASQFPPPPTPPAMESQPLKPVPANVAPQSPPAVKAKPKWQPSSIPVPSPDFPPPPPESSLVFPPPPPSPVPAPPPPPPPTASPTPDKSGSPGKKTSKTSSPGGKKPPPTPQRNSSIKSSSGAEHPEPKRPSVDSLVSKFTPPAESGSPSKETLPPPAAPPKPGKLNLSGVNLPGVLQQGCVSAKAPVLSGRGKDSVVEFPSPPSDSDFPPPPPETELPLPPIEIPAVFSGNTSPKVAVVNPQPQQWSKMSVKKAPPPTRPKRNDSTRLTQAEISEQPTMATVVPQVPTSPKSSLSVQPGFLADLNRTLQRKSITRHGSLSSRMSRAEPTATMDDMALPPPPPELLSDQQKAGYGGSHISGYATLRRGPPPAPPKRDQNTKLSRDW
UniProt P49841, whole entry, looked up, stated change not applied: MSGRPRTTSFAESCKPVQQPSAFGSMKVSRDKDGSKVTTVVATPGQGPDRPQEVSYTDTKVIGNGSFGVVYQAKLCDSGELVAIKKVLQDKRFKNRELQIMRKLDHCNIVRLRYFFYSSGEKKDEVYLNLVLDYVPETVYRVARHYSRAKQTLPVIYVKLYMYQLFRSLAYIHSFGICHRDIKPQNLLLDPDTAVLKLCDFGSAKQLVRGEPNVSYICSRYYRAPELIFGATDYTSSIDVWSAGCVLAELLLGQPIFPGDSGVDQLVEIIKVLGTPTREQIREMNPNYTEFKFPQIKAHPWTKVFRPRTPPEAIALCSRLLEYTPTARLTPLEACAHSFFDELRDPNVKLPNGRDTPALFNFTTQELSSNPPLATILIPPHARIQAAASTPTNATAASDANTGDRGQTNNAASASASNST

Test [1] concerns the target Lpd-EGFP fusion protein (human Lamellipodin) (human) (UniProt Q70E73). In words: co-IP.
The target is the same in test [2]. The test is described as follows: co-IP. This is another data set of the same source.

Read-outs that look alike come from different tables or passages of the source. Results are given in words; binding and its absence hold for the method and conditions named. In cells and extracts the contact can be indirect. Some binding calls cover weakened binding; strength is not graded here. For some assays here: Where a sequence is shown, tags or fusion partners need not be part of it.

Take “constitutively active HA-tagged GSK3β (HA-GSK3β-DA; GSK3 beta S9A) (from UniProt P49841 1-420) (enzyme)”: in test [1], the binding result is given as “binds weakly”.

B1: Myc-EVL (murine) (protein, UniProt P70429 1-414)
chain: MSEQSICQARASVMVYDDTSKKWVPIKPGQQGFSRINIYHNTASSTFRVVGVKLQDQQVVINYSIVKGLKYNQATPTFHQWRDARQVYGLNFASKEEATTFSNAMLFALNIMNSQEGGPSTQRQVQNGPSPEEMDIQRRQVMEQQHRQESLERRISATGPILPPGHPSSAASTTLSCSGPPPPPPPPVPPPPTGSTPPPPPPLPAGGAQGTNHDESSASGLAAALAGAKLRRVQRPEDASGGSSPSGTSKSDANRASSGGGGGGLMEEMNKLLAKRRKAASQTDKPADRKEDESQTEDPSTSPSPGTRATSQPPNSSEAGRKPWERSNSVEKPVSSLLSRTPSVAKSPEAKSPLQSQPHSRVKPAGSVNDVGLDALDLDRMKQEILEEVVRELHKVKEEIIDAIRQELSGISTT
Turning to B1, in test [2], the binding entry is “binds”.
